Here are results for one molecule from publication PMC10338684.

These are yes or no findings as the source states them, for the method shown. Binding calls can cover weak binding; strength is not graded here. Tags and fused reporters may be left off the sequences shown.

This test addresses MOM2, yeast two-hybrid fusion (Arabidopsis thaliana). Nature of the test: two-hybrid; Gal4-BD (pGBKT7-GW) and Gal4-AD (pGADT7-GW) fusions co-transformed into yeast AH109; growth on SD-TLH with 5 mM 3AT after 2-3 days.

B1: PIAL2, yeast two-hybrid fusion (protein, UniProt F4JYG0 1-760)
chain: MSTAAAARPVAGTGLREKTAASLVNSFRLASVTQRLRYHIQDGAKVDPKEFQICCISFAKGIDFAIANNDIPKKVEEFPWLLKQLCRHGTDVYTKTALMVLMISVKHACHLGWFSDSESQELIALADEIRTCFGSSGSTSPGIKSPGSTFSQIMERFYPFVKLGHVLVSFEVKAGYTMLAHDFYISKNMPHSLQEKIRLFVAQTDNIDTSACISNPPEVSFLLNGKGVEKRVNIAMDTGPQLPTNVTAQLKYGTNLLQVMGNFKGNYIIIIAFTGLVVPPEKPVLKDYLQSGVIEASPDSDIIEGPSRVSLSCPISRKRIKLPVKGQLCKHLQCFDFSNYVHINMRNPTWRCPHCNQPVCYPDIRLDQNMAKILKDVEHNAADVIIDAGGTWKVTKNTGETPEPVREIIHDLEDPMSLLNSGPVVFDLTGDDDAELEVFGDNKVEDRKPCMSDAQGQSNNNNTNKHPSNDDYSSIFDISDVIALDPEILSALGNTAPQPHQASNTGTGQQYSNLSQIPMSIDPMPVPVPFSQTPSPRDRPATTSTVFTIPNPSPQYSQVHASPVTPTGTYLGRTTSPRWNQTYQSQAPPMTTPYTSRKVSVPVTSQSPANVSSFVQSQHVPRVLSQPNNYGVRGLTSSHASTSRQHPSGPTVQSVSRLSDLVDVDLTVPDTSNWRPRMRGSLVPGSHSTALDHMIIRPSQQSQTSTRLNSSQPVQTPSVQTSQAQSPFTTAAYRTETVLGNRNHPVPAPPGIVRPTGPTS
B1: the binding result was “binds”.
